Measured values reported in the supplement of paper PMC7661543.
± gives the standard deviation of the averaged measurements. Differences between knockout arms are mostly noise.

System: MDA-MB-231
Assay: relative cell number vs DMSO control (72 h) (% of DMSO); higher = less growth inhibition (more cells)
Protocol: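 QMAP-Seq: a pool of 5 breast cancer cell lines (ZR-75-1, SKBR3, HCC-38, MDA-MB-231, BT-20), each carrying 12 doxycycline-inducible Cas9 sgRNA perturbations (11 knockouts plus non-targeting sgNT), was treated with compounds for 72 h at four 10-fold doses (10 nM-10 uM or 1 nM-1 uM range). Barcodes were amplified and sequenced, and cell number was interpolated from 293T spike-in standard curves. The result is expressed as % of the median of DMSO wells. Two biological replicates.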

CC(=O)Nc1cccc(-n2c(=O)n(C3CC3)c(=O)c3c(Nc4ccc(I)cc4F)n(C)c(=O)c(C)c32)c1 [Trametinib]
Conditions | relative cell number
sgRNA knockout: sgATF3, 10 nM | 96.5 ± 73
sgRNA knockout: sgATF3, 100 nM | 65.6 ± 20
sgRNA knockout: sgATF3, 1000 nM | 47.5 ± 6.4
sgRNA knockout: sgATF3, 10000 nM | 29.6 ± 19
sgRNA knockout: sgATF4, 10 nM | 99.2 ± 36
sgRNA knockout: sgATF4, 100 nM | 64.2 ± 21
sgRNA knockout: sgATF4, 1000 nM | 48.1 ± 6.2
sgRNA knockout: sgATF4, 10000 nM | 36.2 ± 16
sgRNA knockout: sgATF6, 10 nM | 117 ± 10
sgRNA knockout: sgATF6, 100 nM | 74.6 ± 33
sgRNA knockout: sgATF6, 1000 nM | 58.2 ± 4.6
sgRNA knockout: sgATF6, 10000 nM | 38.1 ± 14
sgRNA knockout: sgATG7, 10 nM | 104 ± 3.6
sgRNA knockout: sgATG7, 100 nM | 72.4 ± 18
sgRNA knockout: sgATG7, 1000 nM | 53.9 ± 12
sgRNA knockout: sgATG7, 10000 nM | 39.1 ± 5.8
sgRNA knockout: sgERN1, 10 nM | 81.1 ± 5.3
sgRNA knockout: sgERN1, 100 nM | 66.9 ± 11
sgRNA knockout: sgERN1, 1000 nM | 64.1 ± 5.3
sgRNA knockout: sgERN1, 10000 nM | 36.9 ± 6.6
sgRNA knockout: sgHSF1, 10 nM | 85.6 ± 28
sgRNA knockout: sgHSF1, 100 nM | 61.5 ± 3.6
sgRNA knockout: sgHSF1, 1000 nM | 49.2 ± 3.9
sgRNA knockout: sgHSF1, 10000 nM | 41.5 ± 15
sgRNA knockout: sgHSF2, 10 nM | 111 ± 11
sgRNA knockout: sgHSF2, 100 nM | 64.3 ± 16
sgRNA knockout: sgHSF2, 1000 nM | 53 ± 14
sgRNA knockout: sgHSF2, 10000 nM | 39.1 ± 4.6
sgRNA knockout: sgKEAP1, 10 nM | 127 ± 27
sgRNA knockout: sgKEAP1, 100 nM | 63.2 ± 7.5
sgRNA knockout: sgKEAP1, 1000 nM | 48.3 ± 0.75
sgRNA knockout: sgKEAP1, 10000 nM | 53 ± 15
sgRNA knockout: sgNFE2L2, 10 nM | 95 ± 1.3
sgRNA knockout: sgNFE2L2, 100 nM | 61.9 ± 15
sgRNA knockout: sgNFE2L2, 1000 nM | 54.3 ± 8.9
sgRNA knockout: sgNFE2L2, 10000 nM | 32.7 ± 2.9
sgRNA knockout: sgSLC35F2, 10 nM | 98.8 ± 34
sgRNA knockout: sgSLC35F2, 100 nM | 65.1 ± 4
sgRNA knockout: sgSLC35F2, 1000 nM | 53 ± 5.3
sgRNA knockout: sgSLC35F2, 10000 nM | 30.9 ± 6.6
sgRNA knockout: sgXBP1, 10 nM | 98.9 ± 5.1
sgRNA knockout: sgXBP1, 100 nM | 82.1 ± 9.6
sgRNA knockout: sgXBP1, 1000 nM | 48.3 ± 14
sgRNA knockout: sgXBP1, 10000 nM | 46.8 ± 9.5

Nc1ccccc1NC(=O)c1ccc(CNC(=O)OCc2cccnc2)cc1 [Entinostat]
Conditions | relative cell number
sgRNA knockout: sgATF3, 10 nM | 107 ± 21
sgRNA knockout: sgATF3, 100 nM | 108 ± 47
sgRNA knockout: sgATF3, 1000 nM | 37.2 ± 18
sgRNA knockout: sgATF3, 10000 nM | 12.4 ± 11
sgRNA knockout: sgATF4, 10 nM | 123 ± 31
sgRNA knockout: sgATF4, 100 nM | 103 ± 32
sgRNA knockout: sgATF4, 1000 nM | 25 ± 3.8
sgRNA knockout: sgATF4, 10000 nM | 24.8 ± 9.8
sgRNA knockout: sgATF6, 10 nM | 121 ± 2.8
sgRNA knockout: sgATF6, 100 nM | 110.6 ± 0.56
sgRNA knockout: sgATF6, 1000 nM | 23.9 ± 0.56
sgRNA knockout: sgATF6, 10000 nM | 12.8 ± 9.5
sgRNA knockout: sgATG7, 10 nM | 83.8 ± 18
sgRNA knockout: sgATG7, 100 nM | 105 ± 36
sgRNA knockout: sgATG7, 1000 nM | 31.2 ± 4.3
sgRNA knockout: sgATG7, 10000 nM | 12.5 ± 5
sgRNA knockout: sgERN1, 10 nM | 89.5 ± 2.2
sgRNA knockout: sgERN1, 100 nM | 111 ± 48
sgRNA knockout: sgERN1, 1000 nM | 29.1 ± 3.8
sgRNA knockout: sgERN1, 10000 nM | 14.2 ± 0.92
sgRNA knockout: sgHSF1, 10 nM | 94.6 ± 8
sgRNA knockout: sgHSF1, 100 nM | 95.6 ± 8.2
sgRNA knockout: sgHSF1, 1000 nM | 42.2 ± 1.9
sgRNA knockout: sgHSF1, 10000 nM | 15.3 ± 13
sgRNA knockout: sgHSF2, 10 nM | 110 ± 9.8
sgRNA knockout: sgHSF2, 100 nM | 100 ± 13
sgRNA knockout: sgHSF2, 1000 nM | 36.4 ± 5
sgRNA knockout: sgHSF2, 10000 nM | 12.2 ± 8.6
sgRNA knockout: sgKEAP1, 10 nM | 93 ± 11
sgRNA knockout: sgKEAP1, 100 nM | 75.6 ± 20
sgRNA knockout: sgKEAP1, 1000 nM | 28 ± 2.7
sgRNA knockout: sgKEAP1, 10000 nM | 14.1 ± 11
sgRNA knockout: sgNFE2L2, 10 nM | 95.5 ± 12
sgRNA knockout: sgNFE2L2, 100 nM | 92.7 ± 9.8
sgRNA knockout: sgNFE2L2, 1000 nM | 31.2 ± 5.6
sgRNA knockout: sgNFE2L2, 10000 nM | 11.3 ± 8
sgRNA knockout: sgSLC35F2, 10 nM | 117 ± 42
sgRNA knockout: sgSLC35F2, 100 nM | 147 ± 27
sgRNA knockout: sgSLC35F2, 1000 nM | 31.9 ± 5.4
sgRNA knockout: sgSLC35F2, 10000 nM | 10.3 ± 4.9
sgRNA knockout: sgXBP1, 10 nM | 122 ± 38
sgRNA knockout: sgXBP1, 100 nM | 115 ± 21
sgRNA knockout: sgXBP1, 1000 nM | 23.9 ± 3.9
sgRNA knockout: sgXBP1, 10000 nM | 10.2 ± 6

CC(C)(C)c1cnc(CSc2cnc(NC(=O)C3CCNCC3)s2)o1 [SNS032]
Conditions | relative cell number
sgRNA knockout: sgATF3, 10 nM | 96.3 ± 34
sgRNA knockout: sgATF3, 100 nM | 79.1 ± 1.7
sgRNA knockout: sgATF3, 1000 nM | 9.69 ± 0.75
sgRNA knockout: sgATF3, 10000 nM | 20.9 ± 6.6
sgRNA knockout: sgATF4, 10 nM | 84.2 ± 6.1
sgRNA knockout: sgATF4, 100 nM | 72.9 ± 55
sgRNA knockout: sgATF4, 1000 nM | 15.8 ± 2.3
sgRNA knockout: sgATF4, 10000 nM | 20.6 ± 5.4
sgRNA knockout: sgATF6, 10 nM | 94.99 ± 0.12
sgRNA knockout: sgATF6, 100 nM | 62 ± 31
sgRNA knockout: sgATF6, 1000 nM | 18.5 ± 6.2
sgRNA knockout: sgATF6, 10000 nM | 21.3 ± 2.6
sgRNA knockout: sgATG7, 10 nM | 85.4 ± 5
sgRNA knockout: sgATG7, 100 nM | 63.2 ± 17
sgRNA knockout: sgATG7, 1000 nM | 12.1 ± 2.2
sgRNA knockout: sgATG7, 10000 nM | 14 ± 1
sgRNA knockout: sgERN1, 10 nM | 112 ± 34
sgRNA knockout: sgERN1, 100 nM | 56.6 ± 17
sgRNA knockout: sgERN1, 1000 nM | 14.2 ± 2
sgRNA knockout: sgERN1, 10000 nM | 17.1 ± 13
sgRNA knockout: sgHSF1, 10 nM | 92.2 ± 15
sgRNA knockout: sgHSF1, 100 nM | 78.6 ± 20
sgRNA knockout: sgHSF1, 1000 nM | 13.7 ± 1.7
sgRNA knockout: sgHSF1, 10000 nM | 18.3 ± 5.4
sgRNA knockout: sgHSF2, 10 nM | 82.1 ± 20
sgRNA knockout: sgHSF2, 100 nM | 68.7 ± 16
sgRNA knockout: sgHSF2, 1000 nM | 14.4 ± 0.32
sgRNA knockout: sgHSF2, 10000 nM | 19.1 ± 0.57
sgRNA knockout: sgKEAP1, 10 nM | 112 ± 2.4
sgRNA knockout: sgKEAP1, 100 nM | 64.5 ± 15
sgRNA knockout: sgKEAP1, 1000 nM | 16.2 ± 6.8
sgRNA knockout: sgKEAP1, 10000 nM | 15.6 ± 2.5
sgRNA knockout: sgNFE2L2, 10 nM | 111 ± 16
sgRNA knockout: sgNFE2L2, 100 nM | 64.2 ± 8.1
sgRNA knockout: sgNFE2L2, 1000 nM | 10.8 ± 5.5
sgRNA knockout: sgNFE2L2, 10000 nM | 16.2 ± 2.9
sgRNA knockout: sgSLC35F2, 10 nM | 105 ± 10
sgRNA knockout: sgSLC35F2, 100 nM | 68.8 ± 13
sgRNA knockout: sgSLC35F2, 1000 nM | 11.3 ± 3.7
sgRNA knockout: sgSLC35F2, 10000 nM | 13.5 ± 9
sgRNA knockout: sgXBP1, 10 nM | 100 ± 19
sgRNA knockout: sgXBP1, 100 nM | 61.9 ± 1.1
sgRNA knockout: sgXBP1, 1000 nM | 13.7 ± 1.3
sgRNA knockout: sgXBP1, 10000 nM | 15.5 ± 1.1
